By UniProt entry, the sequences of proteins in these tests, tags left out.
UniProt P35372, whole entry: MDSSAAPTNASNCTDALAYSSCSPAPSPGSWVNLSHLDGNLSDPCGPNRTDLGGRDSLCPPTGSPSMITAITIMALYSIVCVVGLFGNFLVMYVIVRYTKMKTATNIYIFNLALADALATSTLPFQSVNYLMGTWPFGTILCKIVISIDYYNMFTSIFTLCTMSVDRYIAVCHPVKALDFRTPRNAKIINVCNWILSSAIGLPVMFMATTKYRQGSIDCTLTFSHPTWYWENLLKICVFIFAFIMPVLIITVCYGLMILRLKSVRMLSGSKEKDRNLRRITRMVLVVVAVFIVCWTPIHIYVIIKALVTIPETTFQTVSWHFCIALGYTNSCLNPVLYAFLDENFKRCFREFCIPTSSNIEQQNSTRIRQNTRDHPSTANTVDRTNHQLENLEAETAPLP

In EP1530462B1, “1-PHENYL-2-DIMETHYLAMINOMETHYL CYCLOHEXANE COMPOUNDS USED FOR THE THERAPY OF DEPRESSIVE SYMPTOMS, PAIN, AND INCONTINENCE” (priority 2002, dated 2004):

Target: µ-Opioid Rezeptor (Homo sapiens, UniProt P35372)
Assay: µ-opioid receptor binding (species not given, reference antidepressants)
Details: unw. = inactive
Source text: Die Ergebnisse dieser, in der Fachliteratur in ihrer Durchführung hinlänglich bekannten Standardtests sind in Tabelle 1 zusammengefaßt: Tabelle 1: Uptakehemmung und Opioidrezeptorbindung

CNCCC(Oc1ccc(C(F)(F)F)cc1)c1ccccc1 (racemic) [Fluoxetin]
Ki-Werte µ-Opioid Rezeptor: unw.
